The data set can be described thus: general procedure: Boc solid-phase peptide synthesis; Boc-Trp(CHO)-PAM resin; dicyclohexyl carbodiimide (DCC). The following applies: whole synthesis, scale 800 mg of 1.8 g protected peptide resin.

Turning to “Cys Ser Cys Ser Ser Leu Met Asp Lys Glu Cys Val Tyr Phe Cys His Leu Asp Ile Ile Trp”, the isolated mass worked out at 120 mg.

(Values after EP0315118 (dated 1989).)
